From PMC7862700
The entries are a selection whose mix differs from that of the whole data set. At the low end of the ranking, values are background and their order means little.

Experiments:
Assay in all cases: DAPPL (digital affinity profiling via proximity ligation, sequencing)
Conditions in all cases: 10 mM Tris-HCl pH 7.5, 50 mM NaCl, 1 mM DTT, 4% glycerol, room temperature, 30 min; GST-TFs on glutathione beads, 16-mer random dsDNA library, 0.1% …; high values mean tight binding; double strand, one strand shown; scale: fold enrichment (6-mer frequency, TF over GST control)
[1] = target: T1, ELK1 (UniProt P19419)
T1 sequence: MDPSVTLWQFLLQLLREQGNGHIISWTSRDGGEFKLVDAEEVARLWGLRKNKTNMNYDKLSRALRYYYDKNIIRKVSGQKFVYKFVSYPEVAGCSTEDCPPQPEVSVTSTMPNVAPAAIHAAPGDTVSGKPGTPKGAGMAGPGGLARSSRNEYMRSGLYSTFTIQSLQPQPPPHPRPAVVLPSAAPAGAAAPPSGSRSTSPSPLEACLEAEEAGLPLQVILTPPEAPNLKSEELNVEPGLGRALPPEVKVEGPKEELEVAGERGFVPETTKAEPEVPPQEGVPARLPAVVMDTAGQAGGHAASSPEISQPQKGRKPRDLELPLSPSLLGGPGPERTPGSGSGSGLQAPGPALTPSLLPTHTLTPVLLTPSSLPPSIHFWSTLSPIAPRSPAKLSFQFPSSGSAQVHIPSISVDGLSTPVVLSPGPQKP

[2] = target: T2, ELK3 (UniProt P41970)
T2 sequence: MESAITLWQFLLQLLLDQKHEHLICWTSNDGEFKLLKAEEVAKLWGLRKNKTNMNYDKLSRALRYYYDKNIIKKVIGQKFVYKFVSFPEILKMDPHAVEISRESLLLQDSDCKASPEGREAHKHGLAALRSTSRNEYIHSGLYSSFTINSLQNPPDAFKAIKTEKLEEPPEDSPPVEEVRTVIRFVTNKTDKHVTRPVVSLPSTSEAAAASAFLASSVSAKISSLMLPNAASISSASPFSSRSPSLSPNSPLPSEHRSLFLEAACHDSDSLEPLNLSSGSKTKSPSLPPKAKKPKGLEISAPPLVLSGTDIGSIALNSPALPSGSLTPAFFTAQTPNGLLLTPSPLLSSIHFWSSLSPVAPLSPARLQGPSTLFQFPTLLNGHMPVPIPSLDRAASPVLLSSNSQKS

[3] = target: T3, SPIC (UniProt Q8N5J4)
T3 sequence: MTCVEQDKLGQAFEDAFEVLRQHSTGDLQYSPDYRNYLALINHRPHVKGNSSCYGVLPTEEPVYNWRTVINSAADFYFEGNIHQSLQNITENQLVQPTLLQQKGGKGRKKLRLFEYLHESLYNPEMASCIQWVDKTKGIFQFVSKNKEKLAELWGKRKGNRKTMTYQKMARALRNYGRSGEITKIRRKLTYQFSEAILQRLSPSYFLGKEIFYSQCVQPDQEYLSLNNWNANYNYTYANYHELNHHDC

[4] = target: T4, ETS2 (UniProt P15036)
T4 sequence: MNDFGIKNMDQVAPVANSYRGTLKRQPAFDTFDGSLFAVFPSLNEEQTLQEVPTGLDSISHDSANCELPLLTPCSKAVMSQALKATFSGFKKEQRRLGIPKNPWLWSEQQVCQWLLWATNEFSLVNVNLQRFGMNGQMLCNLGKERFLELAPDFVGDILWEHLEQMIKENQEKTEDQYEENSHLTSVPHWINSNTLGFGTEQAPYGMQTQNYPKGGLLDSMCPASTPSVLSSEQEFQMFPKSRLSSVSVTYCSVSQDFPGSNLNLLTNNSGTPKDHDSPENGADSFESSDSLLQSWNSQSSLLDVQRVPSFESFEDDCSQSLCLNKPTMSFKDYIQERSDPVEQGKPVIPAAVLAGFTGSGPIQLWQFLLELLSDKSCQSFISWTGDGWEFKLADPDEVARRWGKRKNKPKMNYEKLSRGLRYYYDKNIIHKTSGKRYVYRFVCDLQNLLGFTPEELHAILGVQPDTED

[5] = target: T5, ETV3 (UniProt P41162-2)
T5 sequence: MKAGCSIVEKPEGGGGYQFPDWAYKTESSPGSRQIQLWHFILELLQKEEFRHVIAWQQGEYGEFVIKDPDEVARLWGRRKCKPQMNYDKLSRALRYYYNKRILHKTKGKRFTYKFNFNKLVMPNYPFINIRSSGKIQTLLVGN

Sequence	binding signal [1]	binding signal [2]	binding signal [3]	binding signal [4]	binding signal [5]
TCGGGC	0.459	0.521	0.525	0.498	0.556
GAGCCG	0.457	0.405	0.398	0.394	0.437
GTGGGT	0.536	0.438	0.525	0.537	0.434
ACGTGC	0.645	0.642	0.734	0.721	0.63
CGGCGT	0.904	0.893	0.825	0.739	0.867
GCGGAT	0.875	0.857	0.902	0.979	0.976
CCGTCG	0.892	0.819	0.686	0.833	0.789
AGCCAG	0.465	0.505	0.444	0.442	0.476
CAGCGT	0.816	0.84	0.79	0.819	0.857
CGAGTC	0.503	0.655	0.497	0.512	0.52
GGTCAT	0.885	0.847	0.709	0.873	0.85
GTGGAG	0.386	0.391	0.456	0.405	0.424
AGACTG	0.515	0.546	0.457	0.522	0.562
GTGAGG	0.284	0.266	0.243	0.263	0.258
CAGGTG	0.611	0.578	0.564	0.545	0.595
GGAAGG	0.844	0.805	0.795	0.848	0.899
CGCATG	0.641	0.59	0.664	0.665	0.66
GCGAGT	0.505	0.599	0.54	0.55	0.563
ACGGAG	0.345	0.386	0.307	0.358	0.379
CGGACA	0.765	0.738	0.668	0.788	0.817
ATGGAG	0.529	0.513	0.589	0.576	0.544
AGGCGG	0.245	0.241	0.255	0.24	0.256
AGCCCG	0.851	0.865	0.855	0.816	0.935
TGAGGG	0.7	0.6	0.848	0.661	0.633
GAGACG	0.315	0.342	0.362	0.336	0.316
TAGGCG	0.627	0.55	0.646	0.631	0.552
TGCCGT	0.831	0.85	0.847	0.813	0.835
CAAAGG	0.827	0.841	0.824	0.803	0.837

Exported as comma-separated lines: entries from further up
Sequence,binding signal [1],binding signal [2],binding signal [3],binding signal [4],binding signal [5]
AGACTG,0.515,0.546,0.457,0.522,0.562
GTGAGG,0.284,0.266,0.243,0.263,0.258
CAGGTG,0.611,0.578,0.564,0.545,0.595
GGAAGG,0.844,0.805,0.795,0.848,0.899

The list goes on:

Sequence	binding signal [1]	binding signal [2]	binding signal [3]	binding signal [4]	binding signal [5]
GCCAGC	0.719	0.789	0.796	0.721	0.755
CGGGGT	0.573	0.613	0.671	0.675	0.639
TAGAGC	0.784	0.82	0.949	0.769	0.771
CAGTTA	0.781	0.845	0.627	0.757	0.771
CCAGTC	0.263	0.245	0.281	0.256	0.257
CCGTTG	0.92	0.981	0.861	0.837	0.859
ATCGTA	0.84	0.775	0.861	0.841	0.871
GCCAGT	0.316	0.288	0.288	0.311	0.313
GCCATG	0.872	0.783	0.753	0.729	0.845
GCAGAG	0.645	0.627	0.718	0.7	0.708
GACCGT	0.43	0.346	0.433	0.445	0.415
GCAGTC	0.482	0.5	0.474	0.464	0.502
TGAGGC	0.49	0.481	0.427	0.441	0.468
GGAGAC	0.149	0.157	0.158	0.163	0.157
AGCCGA	0.83	0.84	0.794	0.773	0.88
GTAGTC	0.763	0.651	0.573	0.7	0.642
GTAGGT	0.859	0.836	0.964	0.767	0.876
GAGGAC	0.628	0.616	0.603	0.606	0.607
GAGAAG	0.698	0.722	0.798	0.692	0.691
CCTGTC	0.863	0.962	0.888	0.913	0.9
TGGGGC	0.803	0.831	0.803	0.803	0.788
GGTCCG	0.722	0.617	0.863	0.804	0.809
CGTTAG	0.882	0.814	0.737	0.806	0.785
AGGGAC	0.841	0.687	0.746	0.806	0.74
CCAGTA	0.676	0.725	0.623	0.66	0.684
AGCGTT	0.84	0.941	0.965	0.943	0.938
TGTGGG	0.882	0.79	0.923	0.913	0.846
